Measurements as given in patent US10118936B2, “Arginase inhibitors and methods of use” (ASTRAZENECA AB, priority 2009, dated 2018).
At least one compound was matched to its structure with a doubt left.

System: arginase
Test: Arginase inhibition, potency comparisons (isoform not stated)
Assay type: biochemical, human
Conditions: relative potency statements in text
Procedure: Quantitative determination of arginase activity was performed by a colorimetric method using the QuantiChrom™ Arginase Assay Kit available from BioAssay Systems (Hayward, Calif., Catalog No. DARG-200), which was used according to the manufacture's protocol. Briefly, the method utilizes a chromogen that forms a colored complex specifically with urea produced in the arginase reaction. See, Mellerup, “Colorimetric method for rapid determination of serum arginase,” Clin. Chem. 13, 900-08 (1967). The intensity of the color is directly proportional to the arginase activity in the sample.
The rate of urea production was measured in the presence of twelve different concentrations of each potential inhibitor compound. The half maximal inhibitory concentration (IC50) was determined by constructing a dose-response curve. As IC50 values are dependent upon the measurement conditions, the IC50 values are converted to the inhibitor binding affinity (Ki) using the Cheng-Prusoff equation and the measured affinity constant (Km) of L-arginine. See, e.g., Cheng et al., “Relationship between the inhibition constant (K1) and the concentration of inhibitor which causes 50 percent inhibition (I50) of an enzymatic reaction,” Biochem. Pharmacol. 22, 3099-108 (1973). […]

## NC(CCCCB(O)O)(CCCCc1ccccc1)C(=O)O (stereo not shown) [Compound 1e, 2-Amino-6-borono-2-(4-phenylbutyl)hexanoic acid]
  potency as arginase inhibitor, compared in words: lost of potency
